This passage reports binding results from article doi:10.1101/2022.09.01.506260.

Chains of the proteins cited; added tags and fusions are not shown. Lines headed by an entry give the natural chain unless they say otherwise; changes in a name come on top.
UniProt P46108, whole entry: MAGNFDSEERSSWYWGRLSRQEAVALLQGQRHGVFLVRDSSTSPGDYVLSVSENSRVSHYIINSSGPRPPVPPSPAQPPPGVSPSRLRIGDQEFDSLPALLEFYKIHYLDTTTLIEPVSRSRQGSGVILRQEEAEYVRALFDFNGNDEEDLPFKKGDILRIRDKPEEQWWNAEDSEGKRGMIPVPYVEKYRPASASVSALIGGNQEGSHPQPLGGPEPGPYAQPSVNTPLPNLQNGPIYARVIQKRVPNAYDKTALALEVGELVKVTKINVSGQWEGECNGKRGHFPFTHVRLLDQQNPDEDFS

These are yes or no findings as the source states them, for the method shown. For some assays here: In cells and extracts the contact can be indirect. Some entries that bind do so weakly or less than the wild type. For some assays here: Tags and fused reporters may be left off the sequences shown.

Assay [1] has as its target T1, HA-tagged PEAK3^FL-S69A mutant (human) (UniProt Q6ZS72).
T1 sequence: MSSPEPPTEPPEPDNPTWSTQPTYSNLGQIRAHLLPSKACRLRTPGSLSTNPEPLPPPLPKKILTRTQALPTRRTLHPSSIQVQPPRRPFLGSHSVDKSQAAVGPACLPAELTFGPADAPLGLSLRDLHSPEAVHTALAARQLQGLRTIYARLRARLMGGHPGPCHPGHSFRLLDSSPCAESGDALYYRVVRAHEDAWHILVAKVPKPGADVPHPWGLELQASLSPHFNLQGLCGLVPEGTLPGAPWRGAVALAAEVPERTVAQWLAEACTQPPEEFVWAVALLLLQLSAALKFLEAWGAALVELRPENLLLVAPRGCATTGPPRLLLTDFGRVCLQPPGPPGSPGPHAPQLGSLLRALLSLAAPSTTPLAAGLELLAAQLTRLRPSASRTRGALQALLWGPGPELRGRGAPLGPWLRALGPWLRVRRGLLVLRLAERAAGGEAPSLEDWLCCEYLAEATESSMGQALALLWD
The experiment in a line: co-IP.

The target in assay [2] is T2, PEAK1^IDR1 (N-terminally truncated PEAK1, residues 1082-1746) (human) (UniProt Q9H792).
T2 sequence: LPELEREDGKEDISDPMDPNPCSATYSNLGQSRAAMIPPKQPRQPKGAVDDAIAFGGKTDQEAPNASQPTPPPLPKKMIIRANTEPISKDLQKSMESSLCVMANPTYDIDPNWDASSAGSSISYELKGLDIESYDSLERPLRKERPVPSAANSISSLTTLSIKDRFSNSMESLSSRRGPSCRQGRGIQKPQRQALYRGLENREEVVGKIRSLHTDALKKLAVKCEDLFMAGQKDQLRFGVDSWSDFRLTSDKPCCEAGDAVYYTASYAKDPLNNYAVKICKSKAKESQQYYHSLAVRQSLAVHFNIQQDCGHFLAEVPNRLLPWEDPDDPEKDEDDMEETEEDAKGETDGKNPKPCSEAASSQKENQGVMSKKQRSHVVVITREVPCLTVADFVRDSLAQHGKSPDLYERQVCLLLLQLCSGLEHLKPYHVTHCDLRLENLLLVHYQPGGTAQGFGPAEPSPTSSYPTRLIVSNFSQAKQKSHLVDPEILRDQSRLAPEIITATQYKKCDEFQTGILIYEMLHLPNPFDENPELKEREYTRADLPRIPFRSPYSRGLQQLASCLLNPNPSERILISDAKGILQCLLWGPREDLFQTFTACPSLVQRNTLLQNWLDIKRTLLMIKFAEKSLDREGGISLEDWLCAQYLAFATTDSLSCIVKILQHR
The experiment in a line: SEC. On the technique in general: SEC sorts molecules by how far they enter the pores of the column.

As to “endogenous CrkII (HEK293) (from UniProt P46108-1 1-304)”, the binding entry in assay [1] is “binds”.

On to “full length CrkII, dimer (CrkII^FL dimer) (from UniProt P46108-1 1-304)”, for which the binding result in assay [2] was “binds”.
